# Data published in patent US20080293759A1, “Method for Treating Cancer Based on the Modulation of Calcineurin” (Centre National De La Recherche, priority 2005, published 2008).
# “Also recorded” adds a separate entry of the source. For at least one compound, name, drawing or mass did not settle the structure.
# Tests used:
# [1] = tested on: TEL-JAK2 leukemic cells; experiment: TEL-JAK2 leukemic cells grafted i.v. into syngeneic mice, CsA or Prograf by osmotic pump (Example 1); assay type: in vivo, mouse
# [2] = tested on: NFκB; experiment: Constitutive NFκB activation in leukemic cells of treated mice; assay type: in vivo, mouse; conditions: data not shown
# [3] = tested on: cell lines derived from human breast and colon carcinomas; conditions: in vitro; cited from earlier work
# [4] = tested on: ICN1 leukemic cells; experiment: ICN1 leukemic mice treated with CsA or Prograf (Example 2); assay type: in vivo, mouse
# [5] = tested on: TJ2 leukemic cells; experiment: TJ2 leukemic cells s.c. in nu/nu mice, intratumoral injection, BrdU/7-AAD cell cycle distribution; assay type: in vivo, mouse; conditions: Prograf 3 mg/kg/day intratumoral vs PBS, CsA data not shown
# [6] = tested on: calcineurin/NFAT pathway; experiment: Western blot of NFAT1/NFAT4 phosphorylation in spleen leukemic cells of treated TEL-JAK2 mice (Example 1); assay type: in vivo, mouse; conditions: leukemic cells from spleen of CsA- or Prograf-treated vs non-treated mice
# [7] = tested on: TEL-JAK2 leukemic cells
# [8] = target: T1, calcineurin (Mus musculus, UniProt P63328); experiment: Western blot of NFAT phosphorylation in regressing tumors of treated mice (Example 2); assay type: in vivo; conditions: regressing tumors of CsA- or Prograf-treated ICN1 and TEL-JAK2 mice
# T1 construct: endogenous in cells
# [9] = 30 mg/kg/day CsA or 3 mg/kg/day Prograf, 5 days
# [10] = liver leukemic cells, 5 days treatment
# [11] = TEL-JAK2, 30 mg/kg/day CsA or 3 mg/kg/day Prograf, 10 days
structure (smiles),measurement,setting,value
"C=CC[C@@H]1/C=C(\C)C[C@H](C)C[C@H](OC)[C@H]2O[C@@](O)(C(=O)C(=O)N3CCCC[C@H]3C(=O)O[C@H](/C(C)=C/[C@@H]3CC[C@@H](O)[C@H](OC)C3)[C@H](C)[C@@H](O)CC1=O)[C@H](C)C[C@@H]2OC [Prograf, FK506]",tumor cell expansion and invasion,[1]; in vivo treatment of TEL-JAK2 leukemia/lymphoma mice,inhibition of tumor cell expansion and invasion
same,spleen weight (spleen invasion),"[1]; osmotic pump CsA 0.6 mg/mouse/day or Prograf 0.06 mg/mouse/day, 10 days, vs non-treated mice, p value<0.05",statistically reduced spleen weight; also recorded: spleen invasion is inhibited
same,process of tumor metastasis,[1]; osmotic pump CsA or Prograf,strongly inhibited
same,"leukemic blasts in liver (liver invasion, HES sections)","[1]; osmotic pump CsA or Prograf, vs non-treated mice",severely reduced in numbers; also recorded: severe reduction of liver invasion by leukemic cells
same,leukemic blasts in bone marrow imprints (May-Grunwald-Giemsa),"[1]; osmotic pump CsA or Prograf, vs untreated leukemic mice",severe decrease in the number of leukemic blasts; also recorded: severe diminution in leukemic cells numbers
same,constitutive activation of NFκB,[2],not affected
same,block of increase in matrigel invasion,[3],but not
same,tumor cells in hepatic perivascular spaces and sinusoids,[4]; 30 mg/kg/day CsA or 3 mg/kg/day Prograf,near complete suppression of tumor cells
same,leukemic blasts in the bone marrow,[4]; [9],severe reduction of leukemic blasts in the bone marrow
same,splenic tumor load (spleen weight),[4]; [9],dramatic reduction in splenic tumor load; also recorded: substantial reduction
same,hematopoiesis in bone marrow,"[4]; 30 mg/kg/day CsA or 3 mg/kg/day Prograf, 5 days, vs solvent vehicle",restored normal hematopoiesis
same,"number of apoptotic cells (TUNEL, Annexin V)",[4]; [10],striking increase in the number of apoptotic cells
same,proportion of BrdU-positive proliferating tumor cells,[4]; [10],significant decrease in the proportion of BrdU-positive proliferating tumor cells
same,cell cycle distribution of leukemic cells (BrdU-FITC/7-AAD),[5],antiproliferative effect
same,NFAT activation (NFAT1 and NFAT4 phosphorylation),[6],"loss of NFATs activation; also recorded: fully phosphorylated, inactive species"
same,NFAT activation (NFAT1 and NFAT4 phosphorylation),[6]; listed as FK506,complete inactivation of NFAT
same,tumor cells in hepatic perivascular spaces and sinusoids,"[7]; TEL-JAK2, 30 mg/kg/day CsA or 3 mg/kg/day Prograf",near complete suppression of tumor cells
same,leukemic blasts in the bone marrow,[7]; [11],severe reduction of leukemic blasts in the bone marrow; also recorded: induces leukemia regression in bone marrow cells
same,splenic tumor load (spleen weight),[7]; [11],dramatic reduction in splenic tumor load; also recorded: substantial reduction
same,hematopoiesis in bone marrow,"[7]; TEL-JAK2, 30 mg/kg/day CsA or 3 mg/kg/day Prograf, 10 days, vs solvent vehicle",restored normal hematopoiesis
same,"number of apoptotic cells (TUNEL, Annexin V)","[7]; TEL-JAK2, liver leukemic cells, 2 days treatment (Annexin V)",striking increase in the number of apoptotic cells
same,proportion of BrdU-positive proliferating tumor cells,[7]; TEL-JAK2 leukemic cells in vivo,significant decrease in the proportion of BrdU-positive proliferating tumor cells
same,NFAT rephosphorylation (inhibition of calcineurin activation),[8],nearly complete NFAT rephosphorylation
